From article PMC8141524
These are yes or no findings as the source states them, for the method shown. In cells and extracts the contact can be indirect. Some binding calls cover weakened binding; strength is not graded here. Sequences can lack the tags named with a protein.

What was measured:
Test in all cases: pull-down; 293T cells cotransfected with GFP-SANBR and Flag-Strep-tagged SANBR WT or deletion mutants; lysate (20 mM Tris pH 7.5, 150 mM NaCl, 5% glycerol, 0.5% NP40) on MagStrep type 3 XT beads, 2 h 4 °C; immunoblot anti-GFP and anti-Flag
[1] = target: T1, Flag-StrepII-tagged SANBR ΔSANT (lacks amino acids 48-59, helix 3 of the SANT domain) (mouse) (UniProt Q68FF0)
T1 sequence: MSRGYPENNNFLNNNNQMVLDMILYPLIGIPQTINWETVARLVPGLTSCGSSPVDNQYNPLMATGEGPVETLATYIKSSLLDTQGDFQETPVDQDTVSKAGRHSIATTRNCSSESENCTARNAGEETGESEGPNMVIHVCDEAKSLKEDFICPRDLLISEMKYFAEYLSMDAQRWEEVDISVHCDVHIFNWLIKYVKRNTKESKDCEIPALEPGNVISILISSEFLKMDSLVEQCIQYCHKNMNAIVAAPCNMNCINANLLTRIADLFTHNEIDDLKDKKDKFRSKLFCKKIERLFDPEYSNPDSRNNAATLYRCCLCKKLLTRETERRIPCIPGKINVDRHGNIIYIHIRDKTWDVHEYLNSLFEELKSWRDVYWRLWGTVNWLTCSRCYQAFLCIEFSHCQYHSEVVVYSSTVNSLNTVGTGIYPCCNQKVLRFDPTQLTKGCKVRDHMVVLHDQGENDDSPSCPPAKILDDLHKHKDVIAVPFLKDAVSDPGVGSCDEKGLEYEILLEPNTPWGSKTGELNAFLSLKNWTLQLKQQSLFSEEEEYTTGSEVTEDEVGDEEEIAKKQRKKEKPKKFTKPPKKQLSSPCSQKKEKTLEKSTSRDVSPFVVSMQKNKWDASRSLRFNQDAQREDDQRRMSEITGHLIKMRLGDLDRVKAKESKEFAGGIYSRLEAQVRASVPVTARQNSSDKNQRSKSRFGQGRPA

[2] = target: T2, Full-length Flag-StrepII-tagged wild-type SANBR (mouse) (UniProt Q68FF0)
T2 sequence: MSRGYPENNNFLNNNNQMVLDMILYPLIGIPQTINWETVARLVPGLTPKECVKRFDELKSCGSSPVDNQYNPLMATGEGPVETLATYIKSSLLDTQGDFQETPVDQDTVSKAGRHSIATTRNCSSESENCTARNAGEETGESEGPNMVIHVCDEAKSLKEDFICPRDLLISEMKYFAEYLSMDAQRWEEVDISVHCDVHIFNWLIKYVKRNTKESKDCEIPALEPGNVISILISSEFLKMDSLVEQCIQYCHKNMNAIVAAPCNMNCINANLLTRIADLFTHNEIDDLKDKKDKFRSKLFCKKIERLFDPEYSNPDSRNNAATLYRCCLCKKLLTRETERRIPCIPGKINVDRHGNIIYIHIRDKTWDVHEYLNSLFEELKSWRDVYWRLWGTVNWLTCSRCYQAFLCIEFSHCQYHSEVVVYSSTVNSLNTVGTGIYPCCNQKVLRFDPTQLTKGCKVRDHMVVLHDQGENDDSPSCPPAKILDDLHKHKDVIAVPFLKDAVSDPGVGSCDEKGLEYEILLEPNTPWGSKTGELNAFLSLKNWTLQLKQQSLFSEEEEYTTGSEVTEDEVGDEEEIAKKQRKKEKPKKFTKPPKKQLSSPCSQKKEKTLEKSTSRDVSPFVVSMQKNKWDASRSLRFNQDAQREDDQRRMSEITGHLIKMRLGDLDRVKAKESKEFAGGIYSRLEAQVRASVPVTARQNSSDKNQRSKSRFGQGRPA

[3] = target: T3, Flag-StrepII-tagged SANBR ΔBTB (lacks amino acids 147-255) (mouse) (UniProt Q68FF0)
T3 sequence: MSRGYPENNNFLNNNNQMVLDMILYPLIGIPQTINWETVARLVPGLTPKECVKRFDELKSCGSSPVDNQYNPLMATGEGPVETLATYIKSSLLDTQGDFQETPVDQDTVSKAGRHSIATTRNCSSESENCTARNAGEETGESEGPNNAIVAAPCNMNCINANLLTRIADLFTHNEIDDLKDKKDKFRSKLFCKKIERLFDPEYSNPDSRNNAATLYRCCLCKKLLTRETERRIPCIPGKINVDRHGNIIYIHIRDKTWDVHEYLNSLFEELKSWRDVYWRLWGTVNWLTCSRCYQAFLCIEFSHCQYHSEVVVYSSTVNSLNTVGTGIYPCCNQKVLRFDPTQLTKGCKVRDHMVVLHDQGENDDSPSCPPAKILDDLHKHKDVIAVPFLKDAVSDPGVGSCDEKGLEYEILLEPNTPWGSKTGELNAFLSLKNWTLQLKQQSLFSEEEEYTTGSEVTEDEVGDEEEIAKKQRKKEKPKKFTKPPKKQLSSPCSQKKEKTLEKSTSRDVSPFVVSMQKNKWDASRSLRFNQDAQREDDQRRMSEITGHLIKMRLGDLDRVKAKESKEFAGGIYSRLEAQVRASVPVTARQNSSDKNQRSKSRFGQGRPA

Measured: binding

B1: N-terminal GFP-tagged WT SANBR (protein, UniProt Q68FF0-1 1-718)
chain: MSRGYPENNNFLNNNNQMVLDMILYPLIGIPQTINWETVARLVPGLTPKECVKRFDELKSCGSSPVDNQYNPLMATGEGPVETLATYIKSSLLDTQGDFQETPVDQDTVSKAGRHSIATTRNCSSESENCTARNAGEETGESEGPNMVIHVCDEAKSLKEDFICPRDLLISEMKYFAEYLSMDAQRWEEVDISVHCDVHIFNWLIKYVKRNTKESKDCEIPALEPGNVISILISSEFLKMDSLVEQCIQYCHKNMNAIVAAPCNMNCINANLLTRIADLFTHNEIDDLKDKKDKFRSKLFCKKIERLFDPEYSNPDSRNNAATLYRCCLCKKLLTRETERRIPCIPGKINVDRHGNIIYIHIRDKTWDVHEYLNSLFEELKSWRDVYWRLWGTVNWLTCSRCYQAFLCIEFSHCQYHSEVVVYSSTVNSLNTVGTGIYPCCNQKVLRFDPTQLTKGCKVRDHMVVLHDQGENDDSPSCPPAKILDDLHKHKDVIAVPFLKDAVSDPGVGSCDEKGLEYEILLEPNTPWGSKTGELNAFLSLKNWTLQLKQQSLFSEEEEYTTGSEVTEDEVGDEEEIAKKQRKKEKPKKFTKPPKKQLSSPCSQKKEKTLEKSTSRDVSPFVVSMQKNKWDASRSLRFNQDAQREDDQRRMSEITGHLIKMRLGDLDRVKAKESKEFAGGIYSRLEAQVRASVPVTARQNSSDKNQRSKSRFGQGRPA
binds: [1] | [2] | [3]
